These are yes or no findings as the source states them, for the method shown. In cells and extracts the contact can be indirect. These calls come from enrichment with a bait or labelling near it, and not all partners need be listed.
Molecular target: Biotin-FOXC1 (mouse) (UniProt Q61572)
Experiment: affinity purification with mass spectrometry; streptavidin-agarose precipitation of biotinylated FOXC1 from nuclear extract of stable HEK293T cells (293T-Biotin-FOXC1); IP350 buffer (350 mM NaCl, 20 mM Tris-HCl pH 7.5, 0.5% NP40, 1 mM EDTA, 10% glycerin); SDS-PAGE, LC-ESI-MS/MS; proteins of the 293T-Biotin control deducted

Protein sequences, listed by entry. Tags and fused reporters are not part of them.
UniProt P47813: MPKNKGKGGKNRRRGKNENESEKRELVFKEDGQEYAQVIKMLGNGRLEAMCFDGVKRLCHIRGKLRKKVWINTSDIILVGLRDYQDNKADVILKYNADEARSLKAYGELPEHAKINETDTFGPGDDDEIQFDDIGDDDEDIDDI
UniProt Q92616: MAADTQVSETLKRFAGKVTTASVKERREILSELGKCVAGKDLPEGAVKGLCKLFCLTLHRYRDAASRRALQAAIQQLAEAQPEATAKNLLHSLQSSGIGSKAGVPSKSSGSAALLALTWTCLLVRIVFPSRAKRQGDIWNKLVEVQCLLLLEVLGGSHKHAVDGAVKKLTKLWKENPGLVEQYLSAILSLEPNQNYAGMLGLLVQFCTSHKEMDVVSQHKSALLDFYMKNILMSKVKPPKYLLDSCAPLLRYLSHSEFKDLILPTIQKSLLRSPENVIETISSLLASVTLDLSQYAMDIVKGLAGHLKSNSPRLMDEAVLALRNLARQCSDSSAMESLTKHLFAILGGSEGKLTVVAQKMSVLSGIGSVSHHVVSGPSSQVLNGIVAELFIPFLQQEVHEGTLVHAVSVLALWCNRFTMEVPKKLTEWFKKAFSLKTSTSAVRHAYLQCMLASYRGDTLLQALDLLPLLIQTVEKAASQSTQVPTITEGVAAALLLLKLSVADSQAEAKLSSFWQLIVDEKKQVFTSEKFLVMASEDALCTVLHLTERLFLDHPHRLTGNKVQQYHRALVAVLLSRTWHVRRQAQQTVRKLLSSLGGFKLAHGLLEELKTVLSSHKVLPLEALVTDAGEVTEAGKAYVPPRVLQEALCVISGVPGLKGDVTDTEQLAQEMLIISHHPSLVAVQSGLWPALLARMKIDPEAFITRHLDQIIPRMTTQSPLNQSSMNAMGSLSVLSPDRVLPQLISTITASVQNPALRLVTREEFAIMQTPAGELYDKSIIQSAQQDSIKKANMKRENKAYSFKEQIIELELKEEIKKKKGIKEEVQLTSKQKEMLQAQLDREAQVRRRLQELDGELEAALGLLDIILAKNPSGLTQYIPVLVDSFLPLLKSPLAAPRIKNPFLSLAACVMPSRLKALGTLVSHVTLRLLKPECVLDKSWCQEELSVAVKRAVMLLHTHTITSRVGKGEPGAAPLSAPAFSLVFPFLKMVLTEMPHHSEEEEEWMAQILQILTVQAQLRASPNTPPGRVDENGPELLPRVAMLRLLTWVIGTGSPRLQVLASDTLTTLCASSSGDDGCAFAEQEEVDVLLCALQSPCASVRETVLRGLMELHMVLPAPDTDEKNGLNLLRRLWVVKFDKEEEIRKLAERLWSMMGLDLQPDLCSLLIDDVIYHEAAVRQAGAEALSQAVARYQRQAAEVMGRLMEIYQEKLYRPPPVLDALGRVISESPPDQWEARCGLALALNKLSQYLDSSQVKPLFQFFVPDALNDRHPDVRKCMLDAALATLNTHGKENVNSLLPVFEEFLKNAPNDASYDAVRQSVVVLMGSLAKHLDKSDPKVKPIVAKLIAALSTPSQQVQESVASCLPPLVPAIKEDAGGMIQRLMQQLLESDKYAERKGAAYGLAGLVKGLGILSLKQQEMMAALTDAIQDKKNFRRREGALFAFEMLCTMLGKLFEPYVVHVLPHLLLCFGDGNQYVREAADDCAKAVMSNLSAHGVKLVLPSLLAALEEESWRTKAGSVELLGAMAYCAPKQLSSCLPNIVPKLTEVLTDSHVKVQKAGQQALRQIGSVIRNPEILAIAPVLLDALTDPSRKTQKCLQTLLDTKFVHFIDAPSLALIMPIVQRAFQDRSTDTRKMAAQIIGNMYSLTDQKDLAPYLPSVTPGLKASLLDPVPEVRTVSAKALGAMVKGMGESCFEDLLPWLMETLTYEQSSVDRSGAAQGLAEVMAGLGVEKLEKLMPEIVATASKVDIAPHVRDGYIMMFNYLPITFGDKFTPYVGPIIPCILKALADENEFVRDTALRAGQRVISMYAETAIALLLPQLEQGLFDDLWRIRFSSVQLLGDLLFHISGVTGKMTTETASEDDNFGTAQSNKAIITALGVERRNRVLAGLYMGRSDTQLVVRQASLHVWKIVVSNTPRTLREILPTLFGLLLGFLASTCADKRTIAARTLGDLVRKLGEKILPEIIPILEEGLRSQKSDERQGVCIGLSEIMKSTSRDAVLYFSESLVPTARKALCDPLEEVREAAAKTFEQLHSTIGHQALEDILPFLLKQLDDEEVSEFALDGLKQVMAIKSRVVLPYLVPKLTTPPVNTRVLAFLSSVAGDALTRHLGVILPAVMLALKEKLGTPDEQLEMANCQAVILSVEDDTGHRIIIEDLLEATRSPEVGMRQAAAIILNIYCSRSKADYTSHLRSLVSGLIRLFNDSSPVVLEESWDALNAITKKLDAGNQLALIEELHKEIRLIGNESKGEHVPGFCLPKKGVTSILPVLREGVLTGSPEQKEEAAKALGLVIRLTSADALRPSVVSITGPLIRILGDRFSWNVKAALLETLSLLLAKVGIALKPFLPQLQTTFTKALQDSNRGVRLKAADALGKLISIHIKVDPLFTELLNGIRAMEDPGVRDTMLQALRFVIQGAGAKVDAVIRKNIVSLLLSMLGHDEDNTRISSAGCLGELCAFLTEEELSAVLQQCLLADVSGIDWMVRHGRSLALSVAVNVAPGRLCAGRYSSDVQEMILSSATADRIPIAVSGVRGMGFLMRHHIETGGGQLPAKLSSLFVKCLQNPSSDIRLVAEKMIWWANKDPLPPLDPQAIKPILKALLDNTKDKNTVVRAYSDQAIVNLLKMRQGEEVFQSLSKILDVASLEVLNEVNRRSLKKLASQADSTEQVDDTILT
UniProt P11142: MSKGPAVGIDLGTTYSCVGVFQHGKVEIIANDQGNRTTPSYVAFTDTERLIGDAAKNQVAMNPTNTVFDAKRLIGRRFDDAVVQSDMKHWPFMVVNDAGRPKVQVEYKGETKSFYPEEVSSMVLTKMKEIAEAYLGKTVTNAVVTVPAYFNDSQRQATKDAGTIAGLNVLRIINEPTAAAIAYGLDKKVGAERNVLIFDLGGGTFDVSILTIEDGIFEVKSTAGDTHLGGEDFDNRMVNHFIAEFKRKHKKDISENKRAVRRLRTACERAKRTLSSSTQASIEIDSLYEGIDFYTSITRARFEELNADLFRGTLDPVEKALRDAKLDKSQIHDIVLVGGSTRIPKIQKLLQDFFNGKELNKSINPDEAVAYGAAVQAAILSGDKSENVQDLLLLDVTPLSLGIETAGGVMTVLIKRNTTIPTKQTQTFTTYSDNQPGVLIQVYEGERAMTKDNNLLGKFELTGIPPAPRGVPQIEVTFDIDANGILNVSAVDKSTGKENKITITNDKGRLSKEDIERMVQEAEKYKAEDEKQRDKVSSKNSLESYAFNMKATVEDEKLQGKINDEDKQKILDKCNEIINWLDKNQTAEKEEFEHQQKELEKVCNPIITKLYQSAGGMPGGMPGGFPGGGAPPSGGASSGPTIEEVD
UniProt P04264: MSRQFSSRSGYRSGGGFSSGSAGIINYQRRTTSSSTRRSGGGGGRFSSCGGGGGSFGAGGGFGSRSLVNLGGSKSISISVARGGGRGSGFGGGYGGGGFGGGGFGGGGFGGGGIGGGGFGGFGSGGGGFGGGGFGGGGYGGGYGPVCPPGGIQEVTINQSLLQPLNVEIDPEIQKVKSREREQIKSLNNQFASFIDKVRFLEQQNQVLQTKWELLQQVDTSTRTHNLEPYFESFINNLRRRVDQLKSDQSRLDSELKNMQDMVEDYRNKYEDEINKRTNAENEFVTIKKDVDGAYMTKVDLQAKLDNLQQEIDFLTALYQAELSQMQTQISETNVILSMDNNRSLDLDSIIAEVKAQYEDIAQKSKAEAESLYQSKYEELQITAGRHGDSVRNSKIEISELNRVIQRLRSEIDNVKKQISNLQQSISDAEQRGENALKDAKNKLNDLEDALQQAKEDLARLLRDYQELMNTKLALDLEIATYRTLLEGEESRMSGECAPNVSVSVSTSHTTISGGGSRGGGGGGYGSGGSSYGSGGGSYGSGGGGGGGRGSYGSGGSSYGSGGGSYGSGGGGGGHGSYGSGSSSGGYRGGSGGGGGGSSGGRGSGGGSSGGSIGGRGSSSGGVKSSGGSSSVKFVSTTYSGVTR
UniProt Q5UIP0: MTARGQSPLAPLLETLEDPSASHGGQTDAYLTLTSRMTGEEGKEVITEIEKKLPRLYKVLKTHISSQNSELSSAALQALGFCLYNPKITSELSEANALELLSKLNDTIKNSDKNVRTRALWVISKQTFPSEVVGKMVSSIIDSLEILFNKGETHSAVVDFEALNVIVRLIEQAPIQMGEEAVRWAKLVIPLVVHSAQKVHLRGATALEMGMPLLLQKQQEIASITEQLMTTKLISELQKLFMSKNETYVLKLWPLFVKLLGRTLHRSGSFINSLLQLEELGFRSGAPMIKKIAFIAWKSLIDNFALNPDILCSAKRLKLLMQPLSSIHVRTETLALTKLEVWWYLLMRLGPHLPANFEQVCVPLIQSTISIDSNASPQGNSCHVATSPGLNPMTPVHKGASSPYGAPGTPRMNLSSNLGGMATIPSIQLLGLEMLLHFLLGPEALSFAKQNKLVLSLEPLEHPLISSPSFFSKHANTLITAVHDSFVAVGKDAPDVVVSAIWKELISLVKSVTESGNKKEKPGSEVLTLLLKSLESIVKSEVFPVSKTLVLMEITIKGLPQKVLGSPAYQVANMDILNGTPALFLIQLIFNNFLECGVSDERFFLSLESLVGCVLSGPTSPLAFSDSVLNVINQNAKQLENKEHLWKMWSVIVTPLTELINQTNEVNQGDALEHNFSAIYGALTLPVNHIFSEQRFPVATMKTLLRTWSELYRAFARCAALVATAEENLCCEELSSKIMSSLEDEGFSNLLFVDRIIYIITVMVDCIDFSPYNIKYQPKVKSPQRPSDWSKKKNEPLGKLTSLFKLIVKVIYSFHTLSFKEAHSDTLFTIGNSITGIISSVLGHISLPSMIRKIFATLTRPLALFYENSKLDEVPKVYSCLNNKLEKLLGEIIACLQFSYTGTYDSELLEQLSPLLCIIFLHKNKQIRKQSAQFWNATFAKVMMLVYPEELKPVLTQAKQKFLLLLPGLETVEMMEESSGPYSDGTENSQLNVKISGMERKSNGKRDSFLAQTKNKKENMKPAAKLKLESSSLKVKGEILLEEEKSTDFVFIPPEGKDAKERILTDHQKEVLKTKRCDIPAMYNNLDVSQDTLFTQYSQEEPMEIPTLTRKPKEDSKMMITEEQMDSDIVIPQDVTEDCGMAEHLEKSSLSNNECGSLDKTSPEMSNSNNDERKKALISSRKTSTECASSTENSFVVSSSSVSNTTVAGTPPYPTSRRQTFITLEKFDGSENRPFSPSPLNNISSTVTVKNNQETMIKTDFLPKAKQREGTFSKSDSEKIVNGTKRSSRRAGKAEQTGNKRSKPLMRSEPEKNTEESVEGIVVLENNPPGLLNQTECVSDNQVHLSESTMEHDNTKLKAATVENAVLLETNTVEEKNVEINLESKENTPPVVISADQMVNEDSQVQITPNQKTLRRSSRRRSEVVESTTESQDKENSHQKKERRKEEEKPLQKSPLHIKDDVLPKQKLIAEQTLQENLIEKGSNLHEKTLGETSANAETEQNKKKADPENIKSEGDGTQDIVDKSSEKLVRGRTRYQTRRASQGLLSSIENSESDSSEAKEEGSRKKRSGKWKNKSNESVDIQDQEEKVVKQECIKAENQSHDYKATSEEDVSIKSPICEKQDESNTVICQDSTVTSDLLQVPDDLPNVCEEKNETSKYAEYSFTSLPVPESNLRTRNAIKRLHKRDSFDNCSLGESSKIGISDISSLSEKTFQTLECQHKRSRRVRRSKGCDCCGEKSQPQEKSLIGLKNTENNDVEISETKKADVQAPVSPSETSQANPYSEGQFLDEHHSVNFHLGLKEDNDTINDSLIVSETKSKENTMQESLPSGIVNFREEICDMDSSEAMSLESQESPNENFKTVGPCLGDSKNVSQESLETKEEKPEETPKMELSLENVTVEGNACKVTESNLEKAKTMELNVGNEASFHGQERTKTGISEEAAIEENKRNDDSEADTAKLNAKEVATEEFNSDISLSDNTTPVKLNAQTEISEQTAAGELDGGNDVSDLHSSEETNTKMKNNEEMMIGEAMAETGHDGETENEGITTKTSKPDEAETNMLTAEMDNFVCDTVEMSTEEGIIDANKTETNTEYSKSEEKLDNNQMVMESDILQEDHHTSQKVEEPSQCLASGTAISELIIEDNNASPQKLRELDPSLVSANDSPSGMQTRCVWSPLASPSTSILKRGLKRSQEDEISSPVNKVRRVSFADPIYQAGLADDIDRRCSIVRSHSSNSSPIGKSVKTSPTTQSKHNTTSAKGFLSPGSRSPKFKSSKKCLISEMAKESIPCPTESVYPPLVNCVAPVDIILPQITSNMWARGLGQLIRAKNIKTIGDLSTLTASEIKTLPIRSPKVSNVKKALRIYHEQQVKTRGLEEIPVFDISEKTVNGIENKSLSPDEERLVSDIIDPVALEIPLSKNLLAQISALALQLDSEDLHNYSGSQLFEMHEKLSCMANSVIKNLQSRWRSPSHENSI

Substance	binding
Abcf1 (from UniProt Q8NE71 1-845)	binds
Acacb (human (endogenous in HEK293T))	binds
Actl6a (from UniProt O96019 1-429)	binds
Aifm1 (from UniProt O95831)	binds
Amot (from UniProt Q4VCS5 1-1084)	binds
Arrb2 (from UniProt P32121 1-409)	binds
Atp5a1 (from UniProt P25705 44-553)	binds
Baz1a (from UniProt Q9NRL2 1-1556)	binds
Baz2a (from UniProt Q9UIF9 1-1905)	binds
Bms1 (from UniProt Q14692 1-1282)	binds
Bop1 (from UniProt Q14137 1-746)	binds
Brd9 (from UniProt Q9H8M2 1-597)	binds
C1qbp (from UniProt Q07021 74-282)	binds
Cad (from UniProt P27708 1-2225)	binds
Cand1 (from UniProt Q86VP6 1-1230)	binds
Cblb (from UniProt Q13191 1-982)	binds
Cbx2 (from UniProt Q14781 1-532)	binds
Cdk11b (from UniProt P21127 1-795)	binds
Cecr5 (from UniProt Q9BXW7 24-423)	binds
Chd1 (from UniProt O14646 1-1710)	binds
Chd4 (from UniProt Q14839 1-1912)	binds
Chd7 (from UniProt Q9P2D1 1-2997)	binds
Chd8 (from UniProt Q9HCK8 1-2581)	binds
Copa (from UniProt P53621 1-1224)	binds
Copb1 (from UniProt P53618 1-953)	binds

Substance	binding
Csnk2a1 (from UniProt P68400 1-391)	binds
Csnk2b (from UniProt P67870 1-215)	binds
Ddx3x (from UniProt O00571 1-662)	binds
Ddx5 (from UniProt P17844 1-614)	binds
Ddx10 (from UniProt Q13206 1-875)	binds
Ddx17 (from UniProt Q92841 1-729)	binds
Dhx15 (from UniProt O43143 1-795)	binds
Dnaja1 (from UniProt P31689 1-397)	binds
Dnaja3 (human (endogenous in HEK293T))	binds
Dpm1 (from UniProt O60762 1-260)	binds
Dsc1 (from UniProt Q08554)	binds
Dsc3 (from UniProt Q14574)	binds
Dsg1a (human (endogenous in HEK293T))	binds
Dsg2 (from UniProt Q14126 50-1118)	binds
Dsp (from UniProt P15924 1-2871)	binds
Eef1g (from UniProt P26641 1-437)	binds
Eif1a (from UniProt P47813 1-144)	binds
Eif5 (from UniProt P55010 1-431)	binds
Ep300 (from UniProt Q09472 1-2414)	binds
Epb4.1 (from UniProt P11171 1-864)	binds
Epb4.1l2 (from UniProt O43491 1-1005)	binds
Epb4.1l5 (from UniProt Q9HCM4 1-733)	binds
Ercc3 (from UniProt P19447 1-782)	binds
Ewsr1 (from UniProt Q01844 1-656)	binds
Exoc2 (from UniProt Q96KP1 1-924)	binds

Substance	binding
Exoc3 (from UniProt O60645 1-745)	binds
Exoc4 (from UniProt Q96A65 1-974)	binds
Fanci (from UniProt Q9NVI1 1-1328)	binds
Fastkd2 (human (endogenous in HEK293T))	binds
Flna (from UniProt P21333 1-2647)	binds
Fus (from UniProt P35637 1-526)	binds
Gapdh (from UniProt P04406 1-335)	binds
Gcn1l1 (from UniProt Q92616 1-2671)	binds
Gfpt1 (from UniProt Q06210 1-699)	binds
Hdac2 (from UniProt Q92769 1-488)	binds
Heatr1 (from UniProt Q9H583 1-2144)	binds
Hnrnph1 (from UniProt P31943 1-449)	binds
Hnrnpk (from UniProt P61978 1-463)	binds
Hsp90ab1 (from UniProt P08238 1-724)	binds
Hspa5 (from UniProt P11021 19-654)	binds
Hspa8 (from UniProt P11142 1-646)	binds
Hspa9 (from UniProt P38646 47-679)	binds
Hspd1 (from UniProt P10809 27-573)	binds
Ilk (from UniProt Q13418 1-452)	binds
Irak1 (from UniProt P51617 1-712)	binds
Krt1 (from UniProt P04264 1-644)	binds
Krt2 (from UniProt P35908 1-639)	binds
Krt5 (from UniProt P13647 1-590)	binds
Krt6a (from UniProt P02538 1-564)	binds
Krt10 (from UniProt P13645 1-584)	binds

Substance	binding
Krt16 (from UniProt P08779 1-473)	binds
Krt17 (from UniProt Q04695 1-432)	binds
Lmnb1 (from UniProt P20700 1-586)	binds
Lyar (from UniProt Q9NX58 1-379)	binds
Map2k7 (from UniProt O14733 1-419)	binds
Mki67 (from UniProt P46013 1-3256)	binds
Mmtag2 (from UniProt Q9BU76 1-263)	binds
Myh9 (from UniProt P35579 1-1960)	binds
Ncln (from UniProt Q969V3 43-563)	binds
Ndufaf4 (from UniProt Q9P032 1-175)	binds
Nkap (from UniProt Q8N5F7 1-415)	binds
Nop56 (from UniProt O00567 1-594)	binds
Notch4 (from UniProt Q99466 24-2003)	binds
Nsa2 (from UniProt O95478 1-260)	binds
Nsf (from UniProt P46459 1-744)	binds
Osbpl3 (from UniProt Q9H4L5 1-887)	binds
Parp1 (from UniProt P09874 1-1014)	binds
Pcbp1 (from UniProt Q15365 1-356)	binds
Pik3r4 (from UniProt Q99570 1-1358)	binds
Pold1 (from UniProt P28340 1-1107)	binds
Pole (from UniProt Q07864 1-2286)	binds
Polrmt (from UniProt O00411 42-1230)	binds
Prkdc (from UniProt P78527 1-4128)	binds
Prmt5 (from UniProt O14744 1-637)	binds
Prpf4b (human (endogenous in HEK293T))	binds

Substance	binding
Prpf40a (from UniProt O75400 1-957)	binds
Prss1 (from UniProt P07477)	binds
Rad18 (from UniProt Q9NS91 1-495)	binds
Rad21 (from UniProt O60216 1-631)	binds
Rbbp4 (from UniProt Q09028 1-425)	binds
Rfc3 (from UniProt P40938 1-356)	binds
Rfc5 (from UniProt P40937 1-340)	binds
Rhot1 (from UniProt Q8IXI2 1-618)	binds
Rif1 (from UniProt Q5UIP0 1-2472)	binds
Rsbn1 (from UniProt Q5VWQ0 1-802)	binds
Ruvbl1 (from UniProt Q9Y265 1-456)	binds
Sbf1 (from UniProt O95248 1-1868)	binds
Senp3 (from UniProt Q9H4L4 1-574)	binds
Sf3b1 (from UniProt O75533 1-1304)	binds
Slk (from UniProt Q9H2G2 1-1235)	binds
Smarca1 (from UniProt P28370 1-1042)	binds
Smarca4 (from UniProt P51532 1-1647)	binds
Smarca5 (from UniProt O60264 1-1052)	binds
Smarcb1 (from UniProt Q12824 1-385)	binds
Smarcc1 (from UniProt Q92922 1-1105)	binds
Smarcd1 (from UniProt Q96GM5 1-515)	binds
Smarce1 (from UniProt Q969G3 1-411)	binds
Smc3 (from UniProt Q9UQE7 1-1217)	binds
Snrnp200 (from UniProt O75643 1-2136)	binds
Sptan1 (from UniProt Q13813 1-2472)	binds
